Test results from patent US20060034863A1 (CHEMOCENTRYX, published 2006).
No constants are given. Whether binding was seen depends on the method and setting. Some binding calls cover weakened binding; strength is not graded here.

Target: T1, human chemokine receptor CCR1 (human, UniProt P32246 1-355)
T1 construct: whole, on cells; also called HEK293-CCR1 transfectants
T1 sequence (looked up): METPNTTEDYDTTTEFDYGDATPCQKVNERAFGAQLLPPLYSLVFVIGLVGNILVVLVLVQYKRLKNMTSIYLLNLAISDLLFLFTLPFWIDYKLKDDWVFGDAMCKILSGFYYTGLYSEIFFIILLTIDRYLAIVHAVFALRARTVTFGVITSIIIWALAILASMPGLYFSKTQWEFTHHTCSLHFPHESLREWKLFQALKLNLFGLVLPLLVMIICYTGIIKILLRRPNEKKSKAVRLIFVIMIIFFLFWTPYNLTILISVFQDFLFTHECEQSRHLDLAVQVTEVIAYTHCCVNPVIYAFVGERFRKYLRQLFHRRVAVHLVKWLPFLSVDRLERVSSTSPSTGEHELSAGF
Experiment: 125I-MIP-1α competition binding on HEK293-CCR1 cells

B1: MIP-1α (ligand, human, UniProt P10147 27-92, looked up)
chain: ADTPTACCFSYTSRQIPQNFIADYFETSSQCSKPGVIFLTKRSRQVCADPSEEWVQKYVSDLELSA
notes: also called macrophage inflammatory protein
  binding: binds
